Results of single-concentration screens

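Assay of Toxoplasma gondii numbers, read through their beta-galactosidase reporter with a colour substrate. Tested at 50 µM. Higher reads as fewer parasites (inferred from which compounds were picked for retests). Of about 18,000 compounds tested this way, about 170 (0.94%) reached 50% or more in at least one test.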

The filed quantity is “Percent Effect” (%). The record does not define 0% and 100%; most values in the screen are far below 50% and negative numbers occur (in some assays of this library far below -100). The compounds are a random part of those screened.

structure,effect
NCc1nncn1-c1ccccc1,19.79
CCC(=O)N1CCC[C@H]1C(=O)N(C)Cc1nc(C)c[nH]1,9.236
CN(C)CCN(C)Cc1ccc(N)nc1,41.71
CC(C)[C@H](N)C(=O)N1CCOC2(CCCC2)C1,-5.496
NCCOCC1CCCO1 (centres undefined),-7.088
Cc1cc(C(=O)N2C[C@H]3CC[C@@H](C2)[C@H]3O)c(C)o1,3.481
O=C(c1cncc(-c2cncnc2)n1)N1CCCC1,16.71
CCN(CCc1nccs1)C(=O)c1ccncc1F,25.95
CCCc1cc(N)[nH]n1,-9.551
O=C(c1ccc2c(c1)OCCO2)C1CCNCC1,4.99
CCC(C)Oc1cc(C(=O)NCC2(O)CCC2)ccn1 (centres undefined),19.52
CNC(=O)CN1CCN(C)c2ccccc2C1,-6.761
CCOC(=O)N1CCC(N2CCCCC(N)C2)CC1 (centres undefined),-10.96
COC(=O)c1cc(CNC(=O)CC(C)C)ccc1OC,4.537
COc1ccnc(C(=O)N2CCCC(CCCO)C2)c1 (centres undefined),-9.185
O=C(Nc1cccc(Cl)c1)N1CCCNCC1,6.373
COc1ccc(C)cc1CN1CCN(S(N)(=O)=O)CC1,5.615
OCC(O)CSCCc1ccccc1Cl (centres undefined),-4.718
CCOC(=O)c1cc(NC(C)=O)[nH]n1,-27.81
CCn1ccnc(NC2CC2)c1=O,-31.73
CN(CC1CCOCC1)C(=O)Cc1ccsc1,-3.922
O=C(NC1CC1)C1CCCN1 (centres undefined),1.134
CC(CN)c1nncn1C (centres undefined),-10.57
Cc1ccc(NC(=O)N[C@@H]2CNCC[C@H]2O)cc1,0.257
CN(CCCC1CCCO1)C(=O)c1ccc(CO)cc1 (centres undefined),1.85
CC(C)(CC1CCCNC1)C(N)=O (centres undefined),7.36
Cc1ccnc(NCCOCCS(C)(=O)=O)c1,-5.888
CCC(C)(CCO)NC(=O)c1ccc[nH]1 (centres undefined),1.199
CN(CCNS(C)(=O)=O)c1ncccn1,6.862
COCCS(=O)(=O)NCCCO,6.509
CNc1cccnc1N(C)C,57.74
c1nnc(C2COCCN2)o1 (centres undefined),-6.288
Cc1nnc(CCNC(=O)[C@@H](N)C(C)(C)C)s1,-19.9
Cc1ccc(C(C)NC(=O)c2cnccn2)o1 (centres undefined),-0.4182
Cc1ccc(S(C)(=O)=O)cc1NC(=O)C1CCC1,-1.553
CC1CN(C(=O)c2cnsn2)c2cccc(Cl)c2O1 (centres undefined),-3.564
COc1cc2c(cc1CN(C)[C@H]1COC[C@@H]1O)OCO2,-4.277
NC1CCCCC1=O (centres undefined),-7.319
NC(=O)C1CCN(Cc2cnc3ccc(Br)cn23)CC1,-9.596
Cc1onc(N)c1S(=O)(=O)NCc1ccccc1Cl,39.55
Cc1cc(NC(=O)NCCN(C)C(C)C)no1,-7.736
CN(CCCN)C(=O)c1sccc1Br,2.206
CCOC(=O)CN1CCCCC1CNS(C)(=O)=O (centres undefined),16.82
c1nnc(C2CCNCC2)o1,-4.415
c1csc(CSCCNC2=NCCN2)c1,-31.63
COc1ccnc(C(=O)N(C)Cc2cnccn2)c1,-0.1422
CCc1nccn1CCNC(=O)CN1CCCC1,-3.444
O=C(CC1OCCc2ccccc21)N1CCSC1 (centres undefined),-10.26
Cc1noc(Cl)c1CC(=O)N1CCN(C)CC1C (centres undefined),-2.383

6 of the entries, repeated:

{"structure": "COCCS(=O)(=O)NCCCO", "effect": 6.509}
{"structure": "CCn1ccnc(NC2CC2)c1=O", "effect": -31.73}
{"structure": "CN(C)CCN(C)Cc1ccc(N)nc1", "effect": 41.71}
{"structure": "NC1CCCCC1=O", "stereo": "centres undefined", "effect": -7.319}
{"structure": "CCN(CCc1nccs1)C(=O)c1ccncc1F", "effect": 25.95}
{"structure": "Cc1cc(C(=O)N2C[C@H]3CC[C@@H](C2)[C@H]3O)c(C)o1", "effect": 3.481}

Source: ChEMBL document CHEMBL3988442, “University of Dundee, Small-Polar-MMV Screening Library” (2021).